The list shows a part of the results. Small differences around the control level are noise.
Compound: CN[C@@H]1C[C@H]2O[C@@](C)([C@@H]1OC)n1c3ccccc3c3c4c(c5c6ccccc6n2c5c31)C(=O)NC4 [staurosporine]
Assay: log2 fold change of tryptic peptide abundance, ligand vs vehicle (limited proteolysis) (log2 ratio); higher = more trypsin-susceptible (destabilized)
Details: ligand concentration: 20 uM; sample: mouse liver crude lysate; replicate design: treated separately

Amino acid sequences for entries named in this document (tags omitted). A change or cut given only in a name is not applied to a line headed by its entry.
UniProt Q8CIC2: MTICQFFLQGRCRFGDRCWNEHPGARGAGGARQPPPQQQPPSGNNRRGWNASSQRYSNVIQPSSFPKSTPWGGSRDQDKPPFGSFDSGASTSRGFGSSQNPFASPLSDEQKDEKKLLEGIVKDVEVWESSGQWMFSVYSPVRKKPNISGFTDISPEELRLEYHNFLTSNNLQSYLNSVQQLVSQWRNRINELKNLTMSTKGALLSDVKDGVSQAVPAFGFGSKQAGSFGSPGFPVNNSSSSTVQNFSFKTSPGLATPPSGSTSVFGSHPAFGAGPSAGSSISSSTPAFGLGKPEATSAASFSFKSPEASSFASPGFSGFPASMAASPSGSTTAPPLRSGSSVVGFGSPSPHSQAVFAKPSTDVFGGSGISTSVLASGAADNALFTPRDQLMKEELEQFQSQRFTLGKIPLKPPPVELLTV
UniProt Q8CCM6: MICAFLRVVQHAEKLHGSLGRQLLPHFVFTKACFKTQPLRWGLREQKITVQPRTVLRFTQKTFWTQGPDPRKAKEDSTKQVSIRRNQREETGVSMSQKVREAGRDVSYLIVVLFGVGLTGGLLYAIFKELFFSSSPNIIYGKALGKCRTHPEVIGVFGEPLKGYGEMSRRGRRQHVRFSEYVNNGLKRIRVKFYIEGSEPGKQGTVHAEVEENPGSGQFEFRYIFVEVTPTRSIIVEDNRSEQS
UniProt Q8K0D2: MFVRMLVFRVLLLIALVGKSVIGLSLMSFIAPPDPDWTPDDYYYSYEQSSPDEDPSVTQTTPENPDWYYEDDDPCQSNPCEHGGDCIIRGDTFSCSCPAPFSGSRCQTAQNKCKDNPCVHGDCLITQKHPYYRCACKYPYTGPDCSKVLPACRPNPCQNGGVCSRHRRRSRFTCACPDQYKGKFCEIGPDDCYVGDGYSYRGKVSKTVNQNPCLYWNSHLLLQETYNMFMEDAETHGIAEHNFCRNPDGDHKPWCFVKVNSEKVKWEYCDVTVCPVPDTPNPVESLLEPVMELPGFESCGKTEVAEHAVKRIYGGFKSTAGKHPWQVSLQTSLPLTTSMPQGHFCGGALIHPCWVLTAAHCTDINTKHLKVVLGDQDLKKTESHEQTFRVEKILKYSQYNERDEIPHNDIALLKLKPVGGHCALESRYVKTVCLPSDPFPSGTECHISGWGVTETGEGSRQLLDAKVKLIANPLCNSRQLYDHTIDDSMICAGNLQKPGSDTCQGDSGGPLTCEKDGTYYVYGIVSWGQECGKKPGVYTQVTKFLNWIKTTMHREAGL
UniProt Q8CHQ0: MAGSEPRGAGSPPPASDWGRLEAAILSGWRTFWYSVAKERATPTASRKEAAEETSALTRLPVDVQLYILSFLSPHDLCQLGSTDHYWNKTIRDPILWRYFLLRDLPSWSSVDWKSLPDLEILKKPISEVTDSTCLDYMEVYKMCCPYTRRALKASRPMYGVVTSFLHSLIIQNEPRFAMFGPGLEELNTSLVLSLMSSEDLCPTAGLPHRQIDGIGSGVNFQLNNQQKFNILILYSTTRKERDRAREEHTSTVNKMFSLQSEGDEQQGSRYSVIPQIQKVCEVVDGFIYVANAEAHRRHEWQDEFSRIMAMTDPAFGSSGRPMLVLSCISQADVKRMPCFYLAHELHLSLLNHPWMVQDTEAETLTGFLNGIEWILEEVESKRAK
UniProt Q8K0Y7: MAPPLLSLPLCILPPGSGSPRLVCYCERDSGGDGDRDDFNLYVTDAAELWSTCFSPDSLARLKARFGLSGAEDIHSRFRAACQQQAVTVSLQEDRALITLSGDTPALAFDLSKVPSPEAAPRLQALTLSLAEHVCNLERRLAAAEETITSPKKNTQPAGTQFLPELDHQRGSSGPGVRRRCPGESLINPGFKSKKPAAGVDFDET
UniProt Q8CBW3: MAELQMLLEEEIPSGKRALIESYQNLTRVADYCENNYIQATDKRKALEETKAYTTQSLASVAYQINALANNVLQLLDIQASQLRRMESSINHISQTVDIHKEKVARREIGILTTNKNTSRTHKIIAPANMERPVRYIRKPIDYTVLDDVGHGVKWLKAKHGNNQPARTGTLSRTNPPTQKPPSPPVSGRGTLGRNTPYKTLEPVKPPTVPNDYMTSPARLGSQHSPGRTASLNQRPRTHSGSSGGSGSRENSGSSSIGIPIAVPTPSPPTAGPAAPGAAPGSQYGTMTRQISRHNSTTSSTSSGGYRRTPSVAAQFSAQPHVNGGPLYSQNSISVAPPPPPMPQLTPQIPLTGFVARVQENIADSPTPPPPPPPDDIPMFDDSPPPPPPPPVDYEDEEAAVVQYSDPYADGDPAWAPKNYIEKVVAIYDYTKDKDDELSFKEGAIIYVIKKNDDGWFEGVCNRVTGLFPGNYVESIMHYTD
UniProt Q8JZQ9, whole entry: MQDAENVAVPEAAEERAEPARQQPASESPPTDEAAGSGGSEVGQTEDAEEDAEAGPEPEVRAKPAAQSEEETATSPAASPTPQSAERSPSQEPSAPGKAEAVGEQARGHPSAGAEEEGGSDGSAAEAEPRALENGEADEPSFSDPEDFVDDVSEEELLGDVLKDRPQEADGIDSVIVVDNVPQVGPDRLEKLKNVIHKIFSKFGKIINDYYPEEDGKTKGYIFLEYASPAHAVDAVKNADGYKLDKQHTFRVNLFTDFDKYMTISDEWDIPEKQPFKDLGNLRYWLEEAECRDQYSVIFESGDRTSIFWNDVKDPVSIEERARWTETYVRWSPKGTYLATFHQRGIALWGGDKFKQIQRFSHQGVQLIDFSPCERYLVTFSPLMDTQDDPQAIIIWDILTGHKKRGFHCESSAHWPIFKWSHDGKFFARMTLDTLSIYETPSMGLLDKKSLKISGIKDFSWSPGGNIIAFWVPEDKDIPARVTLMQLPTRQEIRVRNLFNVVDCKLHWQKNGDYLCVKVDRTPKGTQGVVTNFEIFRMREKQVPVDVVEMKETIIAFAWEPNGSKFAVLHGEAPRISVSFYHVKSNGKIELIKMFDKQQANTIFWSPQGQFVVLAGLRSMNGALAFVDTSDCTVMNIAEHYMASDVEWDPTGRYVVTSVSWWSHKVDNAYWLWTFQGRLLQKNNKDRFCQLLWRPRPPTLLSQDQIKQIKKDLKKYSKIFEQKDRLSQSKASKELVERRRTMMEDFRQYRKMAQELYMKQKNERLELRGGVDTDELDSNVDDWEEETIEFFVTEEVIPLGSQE
UniProt Q8CGB3: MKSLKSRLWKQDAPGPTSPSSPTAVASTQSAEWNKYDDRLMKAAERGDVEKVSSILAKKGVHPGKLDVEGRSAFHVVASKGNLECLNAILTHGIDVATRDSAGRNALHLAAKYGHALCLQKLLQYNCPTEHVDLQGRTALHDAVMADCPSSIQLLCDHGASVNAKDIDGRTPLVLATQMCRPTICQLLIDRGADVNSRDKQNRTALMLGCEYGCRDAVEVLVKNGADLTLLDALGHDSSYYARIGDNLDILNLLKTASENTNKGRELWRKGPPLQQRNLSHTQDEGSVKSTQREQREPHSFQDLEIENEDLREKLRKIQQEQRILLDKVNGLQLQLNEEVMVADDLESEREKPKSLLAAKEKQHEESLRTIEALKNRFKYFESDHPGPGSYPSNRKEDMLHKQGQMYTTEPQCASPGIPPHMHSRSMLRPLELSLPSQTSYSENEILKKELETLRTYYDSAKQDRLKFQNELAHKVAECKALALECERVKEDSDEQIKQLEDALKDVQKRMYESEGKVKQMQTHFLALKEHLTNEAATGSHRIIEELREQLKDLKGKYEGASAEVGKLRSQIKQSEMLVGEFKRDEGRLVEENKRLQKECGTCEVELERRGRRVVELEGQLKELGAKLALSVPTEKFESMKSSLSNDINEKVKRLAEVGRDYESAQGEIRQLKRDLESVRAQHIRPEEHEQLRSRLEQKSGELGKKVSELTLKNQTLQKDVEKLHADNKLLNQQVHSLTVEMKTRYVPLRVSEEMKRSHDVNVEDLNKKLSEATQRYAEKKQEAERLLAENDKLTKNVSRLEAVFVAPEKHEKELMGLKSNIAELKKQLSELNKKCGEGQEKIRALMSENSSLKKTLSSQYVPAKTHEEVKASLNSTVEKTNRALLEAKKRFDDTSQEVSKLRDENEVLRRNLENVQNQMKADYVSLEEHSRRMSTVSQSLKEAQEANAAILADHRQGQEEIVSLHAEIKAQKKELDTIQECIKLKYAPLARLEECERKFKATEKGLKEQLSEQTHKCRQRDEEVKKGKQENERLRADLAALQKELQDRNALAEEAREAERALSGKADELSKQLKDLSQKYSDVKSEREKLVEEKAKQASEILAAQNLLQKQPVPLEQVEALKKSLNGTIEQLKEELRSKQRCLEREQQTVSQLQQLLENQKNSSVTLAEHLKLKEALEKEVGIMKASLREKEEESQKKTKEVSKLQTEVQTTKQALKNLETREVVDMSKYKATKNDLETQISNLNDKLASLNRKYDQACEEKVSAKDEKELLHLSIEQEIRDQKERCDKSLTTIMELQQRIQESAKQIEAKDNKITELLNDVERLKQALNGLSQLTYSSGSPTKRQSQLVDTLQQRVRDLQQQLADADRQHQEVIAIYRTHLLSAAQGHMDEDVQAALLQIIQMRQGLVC
UniProt Q8K0C8: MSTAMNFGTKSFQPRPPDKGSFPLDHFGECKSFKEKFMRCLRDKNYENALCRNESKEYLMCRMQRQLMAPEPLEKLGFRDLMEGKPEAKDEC
UniProt Q8CH77: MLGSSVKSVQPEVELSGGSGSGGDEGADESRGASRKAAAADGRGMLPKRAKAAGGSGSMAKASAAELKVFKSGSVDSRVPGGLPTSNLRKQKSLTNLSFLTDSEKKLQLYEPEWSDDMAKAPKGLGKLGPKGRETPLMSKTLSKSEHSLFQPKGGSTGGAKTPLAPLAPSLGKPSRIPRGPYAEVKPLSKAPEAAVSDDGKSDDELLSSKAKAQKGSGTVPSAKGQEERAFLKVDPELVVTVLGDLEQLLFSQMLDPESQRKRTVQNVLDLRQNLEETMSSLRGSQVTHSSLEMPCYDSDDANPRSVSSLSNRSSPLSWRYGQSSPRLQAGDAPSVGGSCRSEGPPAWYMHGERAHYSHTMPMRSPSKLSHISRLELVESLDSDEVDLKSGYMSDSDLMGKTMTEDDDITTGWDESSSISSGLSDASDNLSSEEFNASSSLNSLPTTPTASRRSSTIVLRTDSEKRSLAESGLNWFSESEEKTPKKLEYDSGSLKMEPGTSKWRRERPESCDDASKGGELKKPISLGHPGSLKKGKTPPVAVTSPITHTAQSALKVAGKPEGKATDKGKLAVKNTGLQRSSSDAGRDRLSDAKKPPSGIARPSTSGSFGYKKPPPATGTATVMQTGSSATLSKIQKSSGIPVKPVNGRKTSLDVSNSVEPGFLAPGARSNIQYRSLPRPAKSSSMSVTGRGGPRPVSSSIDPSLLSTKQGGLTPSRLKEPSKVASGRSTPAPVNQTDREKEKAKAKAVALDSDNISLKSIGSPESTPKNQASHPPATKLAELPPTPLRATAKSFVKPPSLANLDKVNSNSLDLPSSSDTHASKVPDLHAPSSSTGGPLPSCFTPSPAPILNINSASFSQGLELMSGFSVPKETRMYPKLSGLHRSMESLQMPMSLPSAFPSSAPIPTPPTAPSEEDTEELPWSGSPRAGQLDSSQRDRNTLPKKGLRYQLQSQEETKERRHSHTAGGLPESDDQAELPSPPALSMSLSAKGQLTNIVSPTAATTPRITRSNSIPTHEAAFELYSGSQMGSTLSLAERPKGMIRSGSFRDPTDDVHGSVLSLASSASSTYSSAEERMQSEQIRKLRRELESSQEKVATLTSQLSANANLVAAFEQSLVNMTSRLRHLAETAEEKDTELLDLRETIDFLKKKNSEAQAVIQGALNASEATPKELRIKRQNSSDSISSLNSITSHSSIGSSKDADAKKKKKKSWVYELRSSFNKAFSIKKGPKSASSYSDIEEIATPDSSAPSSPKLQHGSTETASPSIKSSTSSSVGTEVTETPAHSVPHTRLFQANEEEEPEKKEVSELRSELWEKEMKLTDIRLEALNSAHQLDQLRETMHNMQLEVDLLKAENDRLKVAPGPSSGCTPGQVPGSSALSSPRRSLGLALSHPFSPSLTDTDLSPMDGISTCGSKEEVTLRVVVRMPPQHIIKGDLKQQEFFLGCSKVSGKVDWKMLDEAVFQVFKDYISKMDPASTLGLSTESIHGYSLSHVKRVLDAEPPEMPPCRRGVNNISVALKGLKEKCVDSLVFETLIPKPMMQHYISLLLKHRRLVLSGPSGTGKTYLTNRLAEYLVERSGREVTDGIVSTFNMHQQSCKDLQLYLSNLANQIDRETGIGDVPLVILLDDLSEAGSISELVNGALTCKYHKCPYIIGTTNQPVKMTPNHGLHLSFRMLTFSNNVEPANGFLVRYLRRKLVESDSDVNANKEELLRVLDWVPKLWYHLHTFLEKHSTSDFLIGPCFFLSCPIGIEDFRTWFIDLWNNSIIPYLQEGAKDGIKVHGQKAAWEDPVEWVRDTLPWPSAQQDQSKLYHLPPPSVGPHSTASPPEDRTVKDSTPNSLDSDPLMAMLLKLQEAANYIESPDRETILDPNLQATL

Target | log2 fold change
UniProt Q8CGU1 (peptide sequence: EKDSSLVQLSESKR, peptide start residue: 457) | 0.466
UniProt Q8CFE2 (peptide sequence: TAGAGPQCEK, peptide start residue: 10) | 0.281
UniProt Q8CJ40 (peptide sequence: SLSEGAKER, peptide start residue: 1205) | 0.255
UniProt Q8CHT0 (peptide sequence: DPQEPIMK, peptide start residue: 437) | 0.215
UniProt Q8CIC2 (peptide sequence: DQDKPPFGSFDSGASTSR, peptide start residue: 76) | 0.00141
UniProt Q8CFX1 (peptide sequence: QAVAQILPFR, peptide start residue: 206) | -0.412
UniProt Q8CCM6 (peptide sequence: NQREETGVSMSQK, peptide start residue: 86) | -0.0556
UniProt Q8CHC4 (peptide sequence: SMWSVNGDSISK, peptide start residue: 427) | 0.412
UniProt Q8K021 (peptide sequence: EREMQNLSQHGR, peptide start residue: 105) | 0.211
UniProt Q8K0D2 (peptide sequence: LKPVGGHCALESR, peptide start residue: 415) | -0.229
UniProt Q8CHW4 (peptide sequence: VAAGAQIHQSLLCDRAEVK, peptide start residue: 398) | -0.301
UniProt Q8CFJ7 (peptide sequence: YRGPVHCAASILR, peptide start residue: 144) | -0.333
UniProt Q8CHQ0 (peptide sequence: AREEHTSTVNK, peptide start residue: 245) | 0.632
UniProt Q8K0Y7 (peptide sequence: CPGESLINPGFK, peptide start residue: 181) | -0.425
UniProt Q8CBW3 (peptide sequence: KNDDGWFEGVCNR, peptide start residue: 451) | -0.394
UniProt Q8CFQ3 (peptide sequence: VIEDGPEPRPNLR, peptide start residue: 607) | -0.353
UniProt Q8CCH2 (peptide sequence: TGAVYVAEIGAK, peptide start residue: 319) | 0.0925
UniProt Q8K0H7 (peptide sequence: VVVGEPPEAR, peptide start residue: 472) | -0.0555

Two entries drawn at random from the list so far, as already listed:
Target | log2 fold change
UniProt Q8CCM6 (peptide sequence: NQREETGVSMSQK, peptide start residue: 86) | -0.0556
UniProt Q8K0H7 (peptide sequence: VVVGEPPEAR, peptide start residue: 472) | -0.0555

More entries.

Target | log2 fold change
UniProt Q8CBB9 (peptide sequence: FNVDEDMNEHIK, peptide start residue: 228) | -0.445
UniProt Q8JZQ9 (peptide sequence: GYIFLEYASPAHAVDAVK, peptide start residue: 220) | -0.633
UniProt Q8CI61 (peptide sequence: SGYGPSDGPSYGR, peptide start residue: 7) | -0.0642
UniProt Q8CE50 (peptide sequence: MECFNADLK, peptide start residue: 379) | 0.224
UniProt Q8JZV9 (peptide sequence: DNPKEALK, peptide start residue: 193) | -0.218
UniProt Q8CHH5 (peptide sequence: DQAHAVTPDKSQFR, peptide start residue: 708) | 0.264
UniProt Q8CGB3 (peptide sequence: EQREPHSFQDLEIENEDLREK, peptide start residue: 294) | -0.903
UniProt Q8JZY2 (peptide sequence: LQSPQAVLQLGVSKEDAK, peptide start residue: 153) | -0.273
UniProt Q8CDD9 (peptide sequence: EKEAALEELR, peptide start residue: 739) | -0.36
UniProt Q8CJ96 (peptide sequence: SLTFTGGAK, peptide start residue: 129) | -0.174
UniProt Q8K019 (peptide sequence: STSESFIQHIVSLVHHVK, peptide start residue: 598) | 0.137
UniProt Q8K0C8 (peptide sequence: GSFPLDHFGECK, peptide start residue: 20) | -0.411
UniProt Q8K010 (peptide sequence: ELGFTHVSLSSEVMPMVR, peptide start residue: 210) | 0.243
UniProt Q8CH77 (peptide sequence: AVALDSDNISLK, peptide start residue: 747) | -0.286
UniProt Q8CE46 (peptide sequence: SFPGQHHSAGNPDSAITVR, peptide start residue: 262) | 0.462
UniProt Q8CGE8 (peptide sequence: LINFCERVPTLK, peptide start residue: 65) | -0.196
UniProt Q8CI08 (peptide sequence: DDSWKDGCY, peptide start residue: 573) | 0.567
UniProt Q8CE47 (peptide sequence: GHSEWAETMPR, peptide start residue: 504) | 0.473
